Laboratory results published in patent publication US6800653B2, “Epothilone derivatives” (priority 2001, dated 2004).
At least one structure is not confirmed: it was looked up by name or label, or the drawing left a doubt.

These molecules were tested on calf brain tubulin (assay: In vitro tubulin polymerization). Conditions: interpolated concentration inducing an initial slope of 0.01 OD/minute; 1.0 mg/ml microtubule protein, 37°; read-out: Tubulin assay EC0.01.
Format: biochemical
Description: In vitro Tubulin Polymerization
Twice cycled (2×) calf brain tubulin was prepared following the procedure of Williams and Lee (see Williams, R. C., Jr., and Lee, J. C. Preparation of tubulin from brain. Methods in Enzymology 85, Pt. D: 376-385, 1982) and stored in liquid nitrogen before use. Quantification of tubulin polymerization potency is accomplished following a modified procedure of Swindell, et al., (see Swindell, C. S., Krauss, N. E., Horwitz, S. B., and Ringel, L. Biologically active taxol analogues with deleted A-ring side chain substituents and variable C-2′ configurations. J. Med. Chem. 34: 1176-1184, 1991). These modifications, in part, result in the expression of tubulin polymerization potency as an effective concentration for any given compound. For this method, different concentrations of compound in polymerization buffer (0.1M MES, 1 mM EGTA, 0.5 mM MgCl2, pH 6.6) are added to tubulin in polymerization buffer at 37° in microcuvette wells of a Beckman (Beckman Instruments) Model DU 7400 UV spectrophotometer. A final microtubule protein concentration of 1.0 mg/ml and compound concentration of generally 2.5, 5.0, and 10 μM are used. Initial slopes of OD change measured every 10 seconds were calculated by the program accompanying the instrument after initial and final times of the linear region encompassing at least 3 time points were manually defined. Under these conditions linear variances were generally <10^−6, slopes ranged from 0.03 to 0.002 absorbance unit/minute, and maximum absorbance was 0.15 absorbance units. Effective concentration (EC0.01) is defined as the interpolated concentration capable of inducing an initial slope of 0.01 OD/minute rate and is calculated using the formula: EC0.01=concentration/slope. EC0.01 values are expressed as the mean with standard deviation obtained from 3 different concentrations. EC0.01 values for the compounds in this invention fall in the range 0.01-1000 μM.

`CC(=Cc1csc(C)n1)C1CC2OC2CCCC(C)C(O)C(C)C(=O)C(C)(C)C(O)CC(=O)O1` (stereo not shown) [Epothilone A, reference compound] and `CC(=Cc1csc(C)n1)C1CC2OC2(C)CCCC(C)C(O)C(C)C(=O)C(C)(C)C(O)CC(=O)O1` (stereo not shown) [Epothilone B, reference compound] are within 1.5-fold of each other in EC50: 2 µM for the first, 1.8 µM for the second.

First: CCCS(=O)(=O)N1C2CCCC(C)C(O)C(C)C(=O)C(C)(C)C(O)CC(=O)OC(C(C)=Cc3csc(C)n3)CC21 [Example 25, [1S-[1R*,3R*(E),7R*,10S,11R*,12R*,16S*]]-17-N-n-Propylsulfonyl-7,11-dihydroxy-8,8,10,12-tetramethyl-3-[1-methyl-2-(2-methyl-4-thiazolyl)ethenyl]-4-oxa-17-azabicyclo[14.1.0]heptadecane-5,9-dione.]
Second: CC(=Cc1csc(C)n1)C1CC2C(CCCC(C)C(O)C(C)C(=O)C(C)(C)C(O)CC(=O)O1)N2S(=O)(=O)c1cccs1 (stereo not drawn) [Example 26, [1S-[1R*,3R*(E),7R*,10S*,11R*,12R*,16S*]]-17-(2-thienyl)sulfonyl-7,11-dihydroxy-8,8,10,12-tetramethyl-3-[1-methyl-2-(2-methyl-4-thiazolyl)ethenyl]-4-oxa-17-azabicyclo[14.1.0]heptadecane-5,9-dione.]
The EC50 of the first is 2.4-fold higher: 9.4 µM for the first, 4 µM for the second. The second is the more potent here.
